For at least one compound, name, drawing or mass did not settle the structure.
Tests used:
E. coli [1] = test: Antibiotic susceptibility testing by the method of the present invention (AuNP-GOx-Ab nanoprobes, absorbance at 545 nm); assay type: cell-based; settings: for Interpretation of results of the present method: antibiotic at EUCAST breakpoint concentration of Table 1
Protocol: (§1) 250 μL of urine sample was mixed with 250 μL of 2× Mueller-Hinton broth in autoclaved Eppendorf tubes. Respective concentrations of antibiotics as recited in Table 1 were added in each tubes along with one tube without antibiotic which served as a control for monitoring the growth of bacteria. 7-10 μL of the nanoprobes (AuNP-GOx-Ab) prepared in the Example 2 above was added to the mixture and allowed to incubate at 37° C. for 90 minutes to allow growth of bacteria. The solution was then passed through a membrane filter with a pore size of about 450 nm diameter to separate the bacteria bound to the nanoprobes from the unbound ones. The bacteria bound nanoprobes (nanoprobe-bacteria complex) captured on the membrane surface were then recovered by injecting 250 μL of sodium acetate buffer (10 mM, pH 5.1) from the opposite direction.
(§2) 250 μL of the recovered bacteria-nanoprobe complexes were then incubated at 37° C. for 10 minutes with 50 μL glucose solution (final concentration 100 mM) for production of hydrogen peroxide. After 10 minutes, 150 μL of seed solution containing about 16 nM gold nanoparticles having about 5 nm size and 150 μL of 1.25 mM HAuCl4 solution was added to induce growth of the seed particles and left for 20 minutes to allow growth of the seed particle. Finally, the growth of seed nanoparticles and the intensity of colour formed were determined by recording an absorption spectrum for each sample.
(§3) MIC determination protocol was tested on other antibiotics-bacteria combinations as well and percent reduction criterion was determined for each pair from repeated tests.

K. pneumoniae [2] = test: as above; assay type: cell-based; settings: for Interpretation of results of the present method: Patient two urine sample infected with K. pneumoniae, antibiotic at EUCAST breakpoint concentration of Table 1
Protocol: as §1
as §2, with “sample. FIG. 8(a) provides graphic representation of UV-Visible spectra for antibiotic sensitivity test of patient urine samples with different antibiotics, according to an embodiment of the present invention.” for “sample.”
The antibacterial susceptibility test of patient two urine sample containing K. pneumoniae towards the antibiotics ampicillin, gentamicin, levofloxacin and imipenem was performed as mentioned above.
as §3

E. faecalis [3] = test: as above; assay type: cell-based; settings: Patient two sample infected with E. faecalis, antibiotic at EUCAST breakpoint concentration of Table 1
Protocol: as §1
250 μL of the recovered bacteria-nanoprobe complexes were then incubated at 37° C. for 10 minutes with 50 μL glucose solution (final concentration 100 mM) for production of hydrogen peroxide. […] Finally, the growth of seed nanoparticles and the intensity of colour formed were determined by recording an absorption spectrum for each sample. […]

[4] = test system: multi-drug resistant P. aeruginosa; test: as above; assay type: cell-based; settings: Patient two sample infected with multi-drug resistant P. aeruginosa, antibiotic at EUCAST breakpoint concentration of Table 1
Protocol: as §1
as §2, with “sample. FIG. 8(a) provides graphic representation of UV-Visible spectra for antibiotic sensitivity test of patient urine samples with different antibiotics, according to an embodiment of the present invention.” for “sample.”
The antibacterial susceptibility/resistance of patient two urine sample containing multi-drug resistant P. aeruginosa was tested towards the antibiotics imipenem, gentamicin and levofloxacin using the method described herein above.

E. coli [5] = test: CLSI reference method of microdilution; assay type: cell-based; settings: for Interpretation by Microdilution: EUCAST breakpoints
K. pneumoniae [6] = test: CLSI reference method of microdilution; assay type: cell-based; settings: for Interpretation by Microdilution: Patient two urine sample infected with K. pneumoniae, EUCAST breakpoints
P. aeruginosa [7] = test: CLSI reference method of microdilution; assay type: cell-based; settings: Patient two sample infected with P. aeruginosa; EUCAST breakpoints
E. coli [8] = test: VITEK automated susceptibility test; assay type: cell-based
Excerpt: (§4) The AST market has several products based on the method they employ for testing that include automated systems, discs, MIC strips and media. Most extensively used method to determine antibiotic susceptibility involve culture tests based on the phenotypic growth of the bacteria, which require three days to arrive at the conclusion (Puttaswamy S. et al., 2018). Although culture-based growth methods are the most widely used systems for AST, a few sophisticated high-end labs and hospitals employ automated test machines such as Vitek 2.0 from Biomeriux Technologies, Phoenix from BD etc. These instruments work on the measurement of light attenuation by optical scanner for growth/no growth of bacteria in micro-wells with different antibiotics.

K. pneumoniae [9] = test: VITEK automated susceptibility test; assay type: cell-based; settings: Patient two urine sample infected with K. pneumoniae
Excerpt: as §4

P. aeruginosa [10] = test: VITEK automated susceptibility test; assay type: cell-based; settings: Patient two sample infected with P. aeruginosa
Excerpt: as §4

E. faecalis [11] = test: CLSI reference method of microdilution; settings: Patient two sample infected with E. faecalis; EUCAST breakpoints
[12] = Patient one urine sample infected with E. coli (10^4 CFU/mL), 90 min incubation
[13] = Patient one urine sample infected with E. coli
[14] = Patient two urine sample infected with E. coli

C[C@@H](O)[C@H]1C(=O)N2C(C(=O)O)=C(SCCN=CN)C[C@H]12 [Imipenem]
Interpretation by diagnostic method (E. coli [1]; Clinical isolate E. coli): Sensitive | Interpretation of results of the present method (E. coli [1]; [12]): Sensitive | Interpretation of results of the present method (E. coli [1]; Patient one urine sample infected with E. coli (10^4 CFU/mL), 90 min incubation, listed as imipenem): sensitive | Interpretation of results of the present method (K. pneumoniae [2]): Sensitive | Interpretation of results of the present method (K. pneumoniae [2]; listed as imipenem): sensitive | Interpretation of results of the present method (E. faecalis [3]): Sensitive | Interpretation of results of the present method (E. faecalis [3]; listed as imipenem): sensitive | Interpretation of results of the present method [4]: Resistant | Interpretation of results of the present method ([4]; listed as imipenem): resistant | Interpretation by CLSI reference method of microdilution (E. coli [5]; Clinical isolate E. coli): Sensitive | Interpretation by Microdilution (E. coli [5]; [13]): Sensitive | Interpretation by Microdilution (K. pneumoniae [6]): Sensitive | Interpretation by Microdilution (P. aeruginosa [7]): Resistant | Interpretation by VITEK (E. coli [8]; [13]): Sensitive | Interpretation by VITEK (K. pneumoniae [9]): Sensitive | Interpretation by VITEK (P. aeruginosa [10]): Resistant | Interpretation by Microdilution (E. faecalis [11]): Sensitive

C[C@H]1COc2c(N3CCN(C)CC3)c(F)cc3c(=O)c(C(=O)O)cn1c23 [Levofloxacin]
Interpretation of results of the present method (E. coli [1]; [12]): Resistant | Interpretation of results of the present method (E. coli [1]; Patient one urine sample infected with E. coli (10^4 CFU/mL), 90 min incubation, listed as levofloxacin): resistant | Interpretation of results of the present method (E. coli [1]; Patient two urine sample infected with E. coli (10^4 CFU/mL)): Resistant | Interpretation of results of the present method (E. coli [1]; Patient two urine sample infected with E. coli (10^4 CFU/mL), listed as levofloxacin): resistant | Interpretation by diagnostic method (K. pneumoniae [2]; Clinical isolate K. pneumoniae): Resistant | Interpretation of results of the present method (K. pneumoniae [2]): Sensitive | Interpretation of results of the present method (K. pneumoniae [2]; listed as levofloxacin): sensitive | Interpretation of results of the present method [4]: Resistant | Interpretation of results of the present method ([4]; listed as levofloxacin): resistant | Interpretation by Microdilution (E. coli [5]; [13]): Resistant | Interpretation by Microdilution (E. coli [5]; [14]): Resistant | Interpretation by CLSI reference method of microdilution (K. pneumoniae [6]; Clinical isolate K. pneumoniae): Resistant | Interpretation by Microdilution (K. pneumoniae [6]): Sensitive | Interpretation by Microdilution (P. aeruginosa [7]): Resistant | Interpretation by VITEK (E. coli [8]; [13]): Resistant | Interpretation by VITEK (E. coli [8]; [14]): Resistant | Interpretation by VITEK (P. aeruginosa [10]): Resistant

— patent publication US20210278402A1, “METHOD FOR TESTING OF ANTIBIOTIC SUSCEPTIBILITY IN MICROORGANISMS” (MODULE INNOVATIONS PRIVATE LIMITED, priority 2018, published 2021)
